According to the supplement of paper PMC4604168 (melanoma cell lines):
Some of the results follow. Many values rest on one well or one pass, so single values are uncertain.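 Cells were imaged in 1,536-well plates, and nuclei stained with an antibody against cleaved PARP were counted against all DNA-stained nuclei to give the apoptosis fraction. Screening doses were chosen to leave most cells alive, and resting and induced cleaved-PARP levels differ strongly between cell lines.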

Tests used:
Assay in all cases: cleaved PARP positive nuclei fraction relative to DMSO control; melanoma cells; higher = more apoptosis
Details in all cases: library dose: low library concentration; 72 h
MZ2-MEL = system: MZ2-MEL
MeWo = system: MeWo
RPMI7951 = system: RPMI7951
RVH-421 = system: RVH-421
SkMel28 = system: SkMel28
SkMel2 = system: SkMel2
SkMel30 = system: SkMel30
SkMel5 = system: SkMel5
UACC257 = system: UACC257
UACC62 = system: UACC62
WM115 = system: WM115
WM1716 = system: WM1716
WM1745 = system: WM1745
WM3526 = system: WM3526
WM3619 = system: WM3619
WM451Lu = system: WM451Lu

Row | SMILES | cleaved PARP positive nuclei fraction (MZ2-MEL) [%] | cleaved PARP positive nuclei fraction (MeWo) [%] | cleaved PARP positive nuclei fraction (RPMI7951) [%] | cleaved PARP positive nuclei fraction (RVH-421) [%] | cleaved PARP positive nuclei fraction (SkMel28) [%] | cleaved PARP positive nuclei fraction (SkMel2) [%] | cleaved PARP positive nuclei fraction (SkMel30) [%] | cleaved PARP positive nuclei fraction (SkMel5) [%] | cleaved PARP positive nuclei fraction (UACC257) [%] | cleaved PARP positive nuclei fraction (UACC62) [%] | cleaved PARP positive nuclei fraction (WM115) [%] | cleaved PARP positive nuclei fraction (WM1716) [%] | cleaved PARP positive nuclei fraction (WM1745) [%] | cleaved PARP positive nuclei fraction (WM3526) [%] | cleaved PARP positive nuclei fraction (WM3619) [%] | cleaved PARP positive nuclei fraction (WM451Lu) [%]
1 | O=c1[nH]nc(Sc2ncc([N+](=O)[O-])s2)n1-c1ccc2c(c1)OCCO2 + C/C(O)=C(\C#N)C(=O)Nc1cc(Br)ccc1Br [LFM-A13] (first compound 0.2 µM, partner dose 2 µM) | 47.5 | 35.5 | 777 | 36.7 | 127 | 65.4 | 77.8 | 230 | 265 | 95.1 | 72.4 | 204 | 84.4 | 75.2 | 95 | 89.9
2 | Cn1cc(C2=C(c3cn(C4CCN(Cc5ccccn5)CC4)c4ccccc34)C(=O)NC2=O)c2ccccc21 [Enzastaurin] + COc1ccc2c(c1)CCC1C2CCC2(C)C(NCCCCCCN3C(=O)C=CC3=O)CCC12 [U73122] (first compound 0.8 µM, partner dose 0.4 µM) | 70.1 | 40 | 87.8 | 46.9 | 76.7 | 149 | 83.8 | 236 | 206 | 32.3 | 112 | 207 | 88.1 | 134 | 86.7 | 51
3 | C[As](C)SC[C@H](NC(=O)CC[C@H](N)C(=O)O)C(=O)NCC(=O)O [Darinaparsin] + O=C(CCCCCCC(=O)Nc1ccccc1)NO [vorinostat] (first compound 0.4 µM, partner dose 0.08 µM) | 52.6 | 157 | 89.7 | 184 | 177 | 218 | 54.3 | 65 | 23.7 | 99.2 | 50.4 | 55.7 | 75.4 | 176 | 91 | 89.5
4 | CC[C@]1(O)C[C@H]2CN(CCc3c([nH]c4ccccc34)[C@@](C(=O)OC)(c3cc4c(cc3OC)N(C=O)[C@H]3[C@@](O)(C(=O)OC)[C@H](OC(C)=O)[C@]5(CC)C=CCN6CC[C@]43[C@@H]65)C2)C1 [vincristine] + Cc1cc(SCc2sc(-c3ccc(C(F)(F)F)c(F)c3)nc2C)ccc1OCC(=O)O [GW0742] (first compound 0.0001 µM, partner dose 2 µM) | 94.5 | 80.7 | 125 | 41.2 | 115 | 104 | 146 | 43.5 | 93.9 | 135 | 355 | 76.6 | 102 | 85 | 158 | 30.4
5 | C[As](C)SC[C@H](NC(=O)CC[C@H](N)C(=O)O)C(=O)NCC(=O)O [Darinaparsin] + Cc1cc(N2CCOCC2)cc2[nH]c(-c3c(NC[C@@H](O)c4cccc(Cl)c4)cc[nH]c3=O)nc12 [BMS536924] (first compound 0.4 µM, partner dose 0.2 µM) | 135 | 86.5 | 67.4 | 48.3 | 145 | 96.7 | 59.6 | 134 | 126 | 75.4 | 138 | 172 | 109 | 130 | 101 | 123
6 | N.N.[Cl][Pt][Cl] [cisplatin] + CC(C)(C)c1cnc(CSc2cnc(NC(=O)C3CCNCC3)s2)o1 [SNS-032] (first compound 1.6 µM, partner dose 0.01 µM) | 121 | 103 | 40.8 | 64.4 | 128 | 98.9 | 63.4 | 133 | 90.6 | 141 | 63.5 | 119 | 92.3 | 58.2 | 82.5 | 60
7 | C[As](C)SC[C@H](NC(=O)CC[C@H](N)C(=O)O)C(=O)NCC(=O)O [Darinaparsin] + CC1(C)NC(=O)N(c2ccc([N+](=O)[O-])c(C(F)(F)F)c2)C1=O [nilutamide] (first compound 0.4 µM, partner dose 1 µM) | 112 | 210 | 52.2 | 44.8 | 179 | 95.3 | 72 | 33 | 100 | 85.4 | 160 | 165 | 549 | 125 | 82.5 | 126
8 | CC(=O)O[C@@]12CO[C@@H]1C[C@H](O)[C@@]1(C)C(=O)[C@H](O)C3=C(C)[C@@H](OC(=O)[C@H](O)[C@@H](NC(=O)OC(C)(C)C)c4ccccc4)C[C@@](O)([C@@H](OC(=O)c4ccccc4)[C@H]21)C3(C)C [Docetaxel] + Cc1cc(SCc2sc(-c3ccc(C(F)(F)F)c(F)c3)nc2C)ccc1OCC(=O)O [GW0742] (first compound 0.0001 µM, partner dose 2 µM) | 799 | 195 | 346 | 207 | 361 | 945 | 239 | 312 | 163 | 645 | 340 | 274 | 149 | 162 | 178 | 73.6
9 | Cn1cc(C2=C(c3cn(C4CCN(Cc5ccccn5)CC4)c4ccccc34)C(=O)NC2=O)c2ccccc21 [Enzastaurin] + Cc1cc(SCc2sc(-c3ccc(C(F)(F)F)c(F)c3)nc2C)ccc1OCC(=O)O [GW0742] (first compound 0.8 µM, partner dose 2 µM) | 82.9 | 62.4 | 40.6 | 28.2 | 52.6 | 184 | 20 | 75.3 | 74.7 | 83.6 | 50.3 | 217 | 96.4 | 77 | 118 | 187
10 | N.N.[Cl][Pt][Cl] [cisplatin] + c1cc(-c2cnn3cc(-c4ccc(OCCN5CCCCC5)cc4)cnc23)ccn1 [Dorsomorphin] (first compound 1.6 µM, partner dose 0.4 µM) | 76.6 | 161 | 71.2 | 134 | 96.3 | 227 | 88.5 | 83.8 | 53 | 76 | 149 | 59.8 | 388 | 81.8 | 92.5 | 67.2
11 | Cn1cc(C2=C(c3cn(C4CCN(Cc5ccccn5)CC4)c4ccccc34)C(=O)NC2=O)c2ccccc21 [Enzastaurin] + O=C(CCCCCCC(=O)Nc1ccccc1)NO [vorinostat] (first compound 0.8 µM, partner dose 0.08 µM) | 94.9 | 38.1 | 106 | 54.5 | 62.1 | 195 | 207 | 6340 | 188 | 126 | 123 | 122 | 191 | 124 | 173 | 22.6
12 | Cc1ccc(Nc2nccc(N(C)c3ccc4c(C)n(C)nc4c3)n2)cc1S(N)(=O)=O [Pazopanib] + C/C(O)=C(\C#N)C(=O)Nc1cc(Br)ccc1Br [LFM-A13] (first compound 0.4 µM, partner dose 2 µM) | 97.6 | 22.5 | 141 | 203 | 170 | 61.8 | 31.3 | 32.6 | 202 | 144 | 165 | 200 | 86.2 | 68.8 | 289 | 83
13 | OCc1c[nH]c2ccccc12 [Indole-3-carbinol] + C/C(O)=C(\C#N)C(=O)Nc1cc(Br)ccc1Br [LFM-A13] (first compound 0.8 µM, partner dose 2 µM) | 123 | 230 | 26.3 | 118 | 78.2 | 182 | 50.8 | 462 | 8.66 | 151 | 258 | 83 | 457 | 35.7 | 113 | 66.7
14 | CCN(CC)CCNC(=O)c1c(C)[nH]c(/C=C2\C(=O)Nc3ccc(F)cc32)c1C [sunitinib] + Cc1cc(SCc2sc(-c3ccc(C(F)(F)F)c(F)c3)nc2C)ccc1OCC(=O)O [GW0742] (first compound 0.4 µM, partner dose 2 µM) | 187 | 106 | 59.1 | 100 | 110 | 25.6 | 67.4 | 63.4 | 44.9 | 64.2 | 39.4 | 59.6 | 92.7 | 90.6 | 73.9 | 73.2
15 | CN(c1ncccc1CNc1nc(Nc2ccc3c(c2)CC(=O)N3)ncc1C(F)(F)F)S(C)(=O)=O + C/C(O)=C(\C#N)C(=O)Nc1cc(Br)ccc1Br [LFM-A13] (first compound 0.08 µM, partner dose 2 µM) | 140 | 95.7 | 234 | 235 | 109 | 124 | 33.9 | 104 | 85 | 102 | 82.3 | 164 | 96.1 | 167 | 122 | 93.7
16 | CS(=O)(=O)c1ccc(C(=O)Nc2ccc(Cl)c(-c3ccccn3)c2)c(Cl)c1 [vismodegib] + O=C(Oc1ccc([N+](=O)[O-])cc1)N1CCC(C(O)(c2ccc3c(c2)OCO3)c2ccc3c(c2)OCO3)CC1 [JZL184] (first compound 1 µM, partner dose 1 µM) | 56.9 | 43.7 | 30.8 | 77.8 | 86.5 | 70.4 | 186 | 182 | 51.2 | 58.5 | 181 | 26.7 | 76.6 | 87.5 | 186 | 69.5
17 | C[As](C)SC[C@H](NC(=O)CC[C@H](N)C(=O)O)C(=O)NCC(=O)O [Darinaparsin] + COc1cc2c(Oc3ccc4[nH]c(C)cc4c3F)ncnc2cc1OCCCN1CCCC1 [cediranib] (first compound 0.4 µM, partner dose 0.4 µM) | 80 | 20.8 | 147 | 118 | 61.2 | 127 | 60 | 189 | 136 | 52.2 | 215 | 90.6 | 96.6 | 51.7 | 81.1 | 55.1

Single records, as listed above. Order of values: cleaved PARP positive nuclei fraction (MZ2-MEL) [%] | cleaved PARP positive nuclei fraction (MeWo) [%] | cleaved PARP positive nuclei fraction (RPMI7951) [%] | cleaved PARP positive nuclei fraction (RVH-421) [%] | cleaved PARP positive nuclei fraction (SkMel28) [%] | cleaved PARP positive nuclei fraction (SkMel2) [%] | cleaved PARP positive nuclei fraction (SkMel30) [%] | cleaved PARP positive nuclei fraction (SkMel5) [%] | cleaved PARP positive nuclei fraction (UACC257) [%] | cleaved PARP positive nuclei fraction (UACC62) [%] | cleaved PARP positive nuclei fraction (WM115) [%] | cleaved PARP positive nuclei fraction (WM1716) [%] | cleaved PARP positive nuclei fraction (WM1745) [%] | cleaved PARP positive nuclei fraction (WM3526) [%] | cleaved PARP positive nuclei fraction (WM3619) [%] | cleaved PARP positive nuclei fraction (WM451Lu) [%]
Cn1cc(C2=C(c3cn(C4CCN(Cc5ccccn5)CC4)c4ccccc34)C(=O)NC2=O)c2ccccc21 [Enzastaurin] + O=C(CCCCCCC(=O)Nc1ccccc1)NO [vorinostat] (first compound 0.8 µM, partner dose 0.08 µM) reads 94.9 | 38.1 | 106 | 54.5 | 62.1 | 195 | 207 | 6340 | 188 | 126 | 123 | 122 | 191 | 124 | 173 | 22.6
C[As](C)SC[C@H](NC(=O)CC[C@H](N)C(=O)O)C(=O)NCC(=O)O [Darinaparsin] + COc1cc2c(Oc3ccc4[nH]c(C)cc4c3F)ncnc2cc1OCCCN1CCCC1 [cediranib] (first compound 0.4 µM, partner dose 0.4 µM) reads 80 | 20.8 | 147 | 118 | 61.2 | 127 | 60 | 189 | 136 | 52.2 | 215 | 90.6 | 96.6 | 51.7 | 81.1 | 55.1
